Measured values reported in PMC10907643.
These are yes or no findings as the source states them, for the method shown. Binding seen in cells or lysates may run through a third protein. A yes stands for co-enrichment or nearness to the bait. Other partners may have been found. Blank lines part the entries; values can stand above or below the molecule they belong to.

Amino acid sequences for entries named in this document (tags omitted). Residues count along the entry.
UniProt Q76MJ5, residues 35-926: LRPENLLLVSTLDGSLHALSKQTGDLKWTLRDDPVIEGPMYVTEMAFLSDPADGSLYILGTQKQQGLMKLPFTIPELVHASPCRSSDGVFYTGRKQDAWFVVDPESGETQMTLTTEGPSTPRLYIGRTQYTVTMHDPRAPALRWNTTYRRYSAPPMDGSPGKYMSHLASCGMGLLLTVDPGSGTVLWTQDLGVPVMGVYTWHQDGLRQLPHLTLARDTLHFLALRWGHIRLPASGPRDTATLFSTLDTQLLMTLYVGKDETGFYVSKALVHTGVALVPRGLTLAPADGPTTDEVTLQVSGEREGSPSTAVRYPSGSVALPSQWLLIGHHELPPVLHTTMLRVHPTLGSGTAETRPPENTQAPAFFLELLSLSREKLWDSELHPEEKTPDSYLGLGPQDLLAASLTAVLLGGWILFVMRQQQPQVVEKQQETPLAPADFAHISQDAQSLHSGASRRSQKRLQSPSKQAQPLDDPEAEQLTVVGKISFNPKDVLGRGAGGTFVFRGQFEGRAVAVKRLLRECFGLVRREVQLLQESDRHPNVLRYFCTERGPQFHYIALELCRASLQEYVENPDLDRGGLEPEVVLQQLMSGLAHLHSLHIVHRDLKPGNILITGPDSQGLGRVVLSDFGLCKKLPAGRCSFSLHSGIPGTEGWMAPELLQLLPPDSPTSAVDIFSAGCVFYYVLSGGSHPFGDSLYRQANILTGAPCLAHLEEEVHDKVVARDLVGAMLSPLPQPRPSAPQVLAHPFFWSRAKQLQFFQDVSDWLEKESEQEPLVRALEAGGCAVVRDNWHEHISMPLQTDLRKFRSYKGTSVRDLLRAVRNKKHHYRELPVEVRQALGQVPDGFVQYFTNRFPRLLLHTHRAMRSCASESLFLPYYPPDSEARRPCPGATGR
UniProt O75460, residues 19-977: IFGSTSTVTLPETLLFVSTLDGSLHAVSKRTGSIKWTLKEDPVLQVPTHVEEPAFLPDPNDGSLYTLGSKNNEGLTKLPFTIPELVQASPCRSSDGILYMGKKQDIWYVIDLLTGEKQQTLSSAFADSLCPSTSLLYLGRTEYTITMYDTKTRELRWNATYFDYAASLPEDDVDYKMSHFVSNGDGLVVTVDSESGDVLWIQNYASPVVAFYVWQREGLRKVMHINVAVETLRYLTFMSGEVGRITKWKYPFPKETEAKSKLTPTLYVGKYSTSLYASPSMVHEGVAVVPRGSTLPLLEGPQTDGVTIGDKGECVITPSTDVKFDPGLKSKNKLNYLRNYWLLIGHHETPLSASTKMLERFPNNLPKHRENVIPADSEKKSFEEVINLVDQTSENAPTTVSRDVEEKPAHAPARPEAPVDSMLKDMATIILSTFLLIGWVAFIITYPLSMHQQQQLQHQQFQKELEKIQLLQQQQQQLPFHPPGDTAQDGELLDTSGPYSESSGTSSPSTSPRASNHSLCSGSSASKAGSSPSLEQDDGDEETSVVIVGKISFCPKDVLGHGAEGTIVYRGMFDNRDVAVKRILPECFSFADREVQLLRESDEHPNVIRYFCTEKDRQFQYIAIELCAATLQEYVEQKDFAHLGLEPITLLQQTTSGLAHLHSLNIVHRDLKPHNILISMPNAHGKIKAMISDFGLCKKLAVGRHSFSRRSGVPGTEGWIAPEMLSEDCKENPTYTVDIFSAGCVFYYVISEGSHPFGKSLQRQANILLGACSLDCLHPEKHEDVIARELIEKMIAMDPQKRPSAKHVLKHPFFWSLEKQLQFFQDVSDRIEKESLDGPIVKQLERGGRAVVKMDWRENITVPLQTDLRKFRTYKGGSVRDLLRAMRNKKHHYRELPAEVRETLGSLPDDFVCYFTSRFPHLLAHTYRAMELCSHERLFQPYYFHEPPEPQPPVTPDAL
UniProt O95994, residues 21-175: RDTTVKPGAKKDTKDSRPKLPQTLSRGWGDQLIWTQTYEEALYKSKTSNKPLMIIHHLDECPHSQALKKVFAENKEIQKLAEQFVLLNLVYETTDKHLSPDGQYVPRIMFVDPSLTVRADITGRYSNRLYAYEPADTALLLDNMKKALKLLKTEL

Experiments:
[1] = biological target: IRE1β-FLAG (doxycycline-inducible, in LS174T cells) (human) (UniProt Q76MJ5); assay: affinity purification with mass spectrometry; anti-FLAG (BioM2 on streptavidin Dynabeads) precipitation of IRE1α-FLAG or IRE1β-FLAG from LS174T lysates after 24 h doxycycline; 50 mM HEPES-KOH pH 8.0, 100 mM KCl, 2 mM EDTA, 0.1% NP-40, 1 mM DTT; 2 h at 4 °C; label-free quantification against empty vector control
[2] = biological target: IRE1α-FLAG (doxycycline-inducible, in LS174T cells) (human) (UniProt O75460); assay: as above

binding [1]: binds
Molecule: AGR2 (endogenous in LS174T cells) (from UniProt O95994 21-175)

binding [2]: binds | binding [1]: binds
B1: CDC37 (protein, UniProt Q16543 1-378)
chain: MVDYSVWDHIEVSDDEDETHPNIDTASLFRWRHQARVERMEQFQKEKEELDRGCRECKRKVAECQRKLKELEVAEGGKAELERLQAEAQQLRKEERSWEQKLEEMRKKEKSMPWNVDTLSKDGFSKSMVNTKPEKTEEDSEEVREQKHKTFVEKYEKQIKHFGMLRRWDDSQKYLSDNVHLVCEETANYLVIWCIDLEVEEKCALMEQVAHQTIVMQFILELAKSLKVDPRACFRQFFTKIKTADRQYMEGFNDELEAFKERVRGRAKLRIEKAMKEYEEEERKKRLGPGGLDPVEVYESLPEELQKCFDVKDVQMLQDAISKMDPTDAKYHMQRCIDSGLWVPNSKASEAKEGEEAGPGDPLLEAVPKTGDEKDVSV
